Test results taken from PMC8471547.
No constants are given. Whether binding was seen depends on the method and setting. In cells and extracts the contact can be indirect. Some entries that bind do so weakly or less than the wild type.

Protein sequences, listed by entry. Tags and fused reporters are not part of them.
UniProt Q9GKQ9: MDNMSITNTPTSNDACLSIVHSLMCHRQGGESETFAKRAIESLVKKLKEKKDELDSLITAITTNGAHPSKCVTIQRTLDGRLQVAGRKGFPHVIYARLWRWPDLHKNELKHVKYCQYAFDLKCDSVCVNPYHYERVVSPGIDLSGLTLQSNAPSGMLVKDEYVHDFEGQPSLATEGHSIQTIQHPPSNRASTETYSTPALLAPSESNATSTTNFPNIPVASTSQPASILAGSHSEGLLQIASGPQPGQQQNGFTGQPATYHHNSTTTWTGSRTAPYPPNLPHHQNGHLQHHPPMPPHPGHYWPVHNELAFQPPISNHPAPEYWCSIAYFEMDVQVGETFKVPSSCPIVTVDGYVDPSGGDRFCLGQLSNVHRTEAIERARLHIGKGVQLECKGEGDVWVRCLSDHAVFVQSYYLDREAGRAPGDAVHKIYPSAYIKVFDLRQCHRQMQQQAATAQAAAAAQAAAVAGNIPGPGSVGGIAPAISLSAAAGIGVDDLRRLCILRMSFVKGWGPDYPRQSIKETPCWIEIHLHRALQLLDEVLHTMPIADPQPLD
UniProt A0A286ZZJ6: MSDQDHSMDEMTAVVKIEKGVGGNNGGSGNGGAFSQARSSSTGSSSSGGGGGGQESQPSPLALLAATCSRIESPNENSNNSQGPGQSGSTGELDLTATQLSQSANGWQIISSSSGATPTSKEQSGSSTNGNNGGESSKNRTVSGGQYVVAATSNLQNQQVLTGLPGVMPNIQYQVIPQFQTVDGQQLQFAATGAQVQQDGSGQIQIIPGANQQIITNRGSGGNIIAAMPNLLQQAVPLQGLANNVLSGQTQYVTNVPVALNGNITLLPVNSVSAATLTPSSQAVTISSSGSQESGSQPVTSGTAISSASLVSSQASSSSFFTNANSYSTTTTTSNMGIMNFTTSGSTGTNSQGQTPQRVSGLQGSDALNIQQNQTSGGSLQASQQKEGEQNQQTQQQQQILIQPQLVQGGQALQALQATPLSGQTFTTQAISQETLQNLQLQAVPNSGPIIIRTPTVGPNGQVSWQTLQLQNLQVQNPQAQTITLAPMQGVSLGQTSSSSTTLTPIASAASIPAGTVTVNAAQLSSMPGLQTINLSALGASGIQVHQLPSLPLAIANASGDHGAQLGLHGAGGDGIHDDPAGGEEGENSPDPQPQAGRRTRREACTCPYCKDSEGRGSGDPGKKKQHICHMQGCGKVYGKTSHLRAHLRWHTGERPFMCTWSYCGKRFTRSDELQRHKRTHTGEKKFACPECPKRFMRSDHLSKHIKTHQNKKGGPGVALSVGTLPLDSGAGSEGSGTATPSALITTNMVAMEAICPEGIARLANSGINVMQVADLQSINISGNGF
UniProt P56432: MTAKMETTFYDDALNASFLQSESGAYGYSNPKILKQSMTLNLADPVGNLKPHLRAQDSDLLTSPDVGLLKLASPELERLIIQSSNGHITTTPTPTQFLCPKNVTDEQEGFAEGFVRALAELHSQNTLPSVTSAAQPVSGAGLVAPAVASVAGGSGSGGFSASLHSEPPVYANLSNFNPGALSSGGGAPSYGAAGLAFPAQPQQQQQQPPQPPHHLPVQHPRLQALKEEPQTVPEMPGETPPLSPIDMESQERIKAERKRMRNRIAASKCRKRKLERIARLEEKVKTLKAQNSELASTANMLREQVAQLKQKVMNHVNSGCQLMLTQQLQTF

Target: SMAD4 (pig (endogenous in porcine granulosa cells)) (UniProt Q9GKQ9)
Assay: co-IP; 200 uL protein extract of porcine GCs with 4 ug anti-SMAD4 antibody at 4 °C overnight, Protein A/G magnetic beads 4 h at room temperature; eluted proteins identified by Western blotting; IgG as negative control

| Substance | binding |
| --- | --- |
| SP1 (SP1 transcription factor) (from UniProt A0A286ZZJ6 1-786) | binds |
| c-JUN (from UniProt P56432 1-331) | binds |
